Results are given in words; binding and its absence hold for the method and conditions named. In cells and extracts the contact can be indirect. Here binding means that the protein was enriched with, or labelled near, the bait; the list need not be complete. Tags and fused reporters may be left off the sequences shown.
T1: FLAG-TurboID-Nek2A (UniProt P51955)
T1 sequence: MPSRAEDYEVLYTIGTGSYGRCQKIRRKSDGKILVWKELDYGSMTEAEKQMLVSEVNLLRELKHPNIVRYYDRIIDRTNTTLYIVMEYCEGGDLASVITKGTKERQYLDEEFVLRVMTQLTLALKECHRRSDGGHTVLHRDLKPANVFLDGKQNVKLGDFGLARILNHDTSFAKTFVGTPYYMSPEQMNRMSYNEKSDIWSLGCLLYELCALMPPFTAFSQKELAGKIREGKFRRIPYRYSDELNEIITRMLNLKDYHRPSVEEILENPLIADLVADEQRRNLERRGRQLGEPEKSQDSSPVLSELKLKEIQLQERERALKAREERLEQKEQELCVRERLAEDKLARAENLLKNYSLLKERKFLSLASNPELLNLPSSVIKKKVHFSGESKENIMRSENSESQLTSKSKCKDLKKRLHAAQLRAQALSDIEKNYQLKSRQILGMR


Target: T1, FLAG-TurboID-Nek2A
Experiment: proximity labelling

Molecule | binding
CROCC (from UniProt Q5TZA2 1-2017) | binds
LRRC45 (protein, UniProt Q96CN5 1-670) MEEFRRSYSRLCRESGAEPQEAVLQQLHQLPRGRLDLATQSLTVETCRALGKLLPRETLCTELVLSDCMLSEEGATLLLRGLCANTVLRFLDLKGNNLRAAGAEALGKLLQQNKSIQSLTLEWNSLGTWDDAFATFCGGLAANGALQRLDLRNNQISHKGAEELALALKGNTTLQQLDLRWNNVGLLGGRALMNCLPSNRTLWRLDLAGNNIPGDVLRAVEQAMGHSQDRLTTFQENQARTHVLSKEVQHLREEKSKQFLDLMETIDKQREEMAKSSRASAARVGQLQEALNERHSIINALKAKLQMTEAALALSEQKAQDLGELLATAEQEQLSLSQRQAKELKLEQQEAAERESKLLRDLSAANEKNLLLQNQVDELERKFRCQQEQLFQTRQEMTSMSAELKMRAIQAEERLDMEKRRCRQSLEDSESLRIKEVEHMTRHLEESEKAMQERVQRLEAARLSLEEELSRVKAAALSERGQAEEELIKAKSQARLEEQQRLAHLEDKLRLLAQARDEAQGACLQQKQVVAEAQTRVSQLGLQVEGLRRRLEELQQELSLKDQERVAEVSRVRVELQEQNGRLQAELAAQEALREKAAALERQLKVMASDHREALLDRESENASLREKLRLREAEIARIRDEEAQRASFLQNAVLAYVQASPVRTLSPPK | binds
KIFC1 (protein, UniProt Q9BW19 1-673) MDPQRSPLLEVKGNIELKRPLIKAPSQLPLSGSRLKRRPDQMEDGLEPEKKRTRGLGATTKITTSHPRVPSLTTVPQTQGQTTAQKVSKKTGPRCSTAIATGLKNQKPVPAVPVQKSGTSGVPPMAGGKKPSKRPAWDLKGQLCDLNAELKRCRERTQTLDQENQQLQDQLRDAQQQVKALGTERTTLEGHLAKVQAQAEQGQQELKNLRACVLELEERLSTQEGLVQELQKKQVELQEERRGLMSQLEEKERRLQTSEAALSSSQAEVASLRQETVAQAALLTEREERLHGLEMERRRLHNQLQELKGNIRVFCRVRPVLPGEPTPPPGLLLFPSGPGGPSDPPTRLSLSRSDERRGTLSGAPAPPTRHDFSFDRVFPPGSGQDEVFEEIAMLVQSALDGYPVCIFAYGQTGSGKTFTMEGGPGGDPQLEGLIPRALRHLFSVAQELSGQGWTYSFVASYVEIYNETVRDLLATGTRKGQGGECEIRRAGPGSEELTVTNARYVPVSCEKEVDALLHLARQNRAVARTAQNERSSRSHSVFQLQISGEHSSRGLQCGAPLSLVDLAGSERLDPGLALGPGERERLRETQAINSSLSTLGLVIMALSNKESHVPYRNSKLTYLLQNSLGGSAKMLMFVNISPLEENVSESLNSLRFASKVNQCVIGTAQANRK | binds
KIF2C (protein, UniProt Q99661 1-725) MAMDSSLQARLFPGLAIKIQRSNGLIHSANVRTVNLEKSCVSVEWAEGGATKGKEIDFDDVAAINPELLQLLPLHPKDNLPLQENVTIQKQKRRSVNSKIPAPKESLRSRSTRMSTVSELRITAQENDMEVELPAAANSRKQFSVPPAPTRPSCPAVAEIPLRMVSEEMEEQVHSIRGSSSANPVNSVRRKSCLVKEVEKMKNKREEKKAQNSEMRMKRAQEYDSSFPNWEFARMIKEFRATLECHPLTMTDPIEEHRICVCVRKRPLNKQELAKKEIDVISIPSKCLLLVHEPKLKVDLTKYLENQAFCFDFAFDETASNEVVYRFTARPLVQTIFEGGKATCFAYGQTGSGKTHTMGGDLSGKAQNASKGIYAMASRDVFLLKNQPCYRKLGLEVYVTFFEIYNGKLFDLLNKKAKLRVLEDGKQQVQVVGLQEHLVNSADDVIKMIDMGSACRTSGQTFANSNSSRSHACFQIILRAKGRMHGKFSLVDLAGNERGADTSSADRQTRMEGAEINKSLLALKECIRALGQNKAHTPFRESKLTQVLRDSFIGENSRTCMIATISPGISSCEYTLNTLRYADRVKELSPHSGPSGEQLIQMETEEMEACSNGALIPGNLSKEEEELSSQMSSFNEAMTQIRELEEKAMEELKEIIQQGPDWLELSEMTEQPDYDLETFVNKAESALAQQAKHFSALRDVIKALRLAMQLEEQASRQISSKKRPQ | binds

Reference: article doi:10.1101/2023.11.21.567992
